Data as given in PubChem BioAssay AID1259308 (NCATS, 2017)
Shown is a random part of about 59,000 reagents. Over the whole deposit, about 1,510 (2.6%) were called active. 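Calls use total luciferase alone and ignore viability, so some active siRNAs may act by altering cell number.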 The numbers tell different reagents against one gene apart.

- Assay: 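Candidate targets for better recombinant protein yield in mammalian cells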 (primary screen)
- System: human HEK293 embryonic kidney cells stably expressing firefly luciferase (HEK-CMV-Luc2-Hygro)
- Reagent: single siRNA against human genes, 0.8 pmol siRNA per well
- Timing: 72 h
- Measurement: 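Luciferase light (ONE-Glo) measured on one replicate plate set and viability (CellTiter-Glo) on the other, scaled to a negative control siRNA, with robust z-scores and luciferase per cell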
- Reading the numbers: total luciferase, z-score and total luciferase, % of control: higher = more reporter protein produced; luciferase per cell, z-score: higher = more reporter output per viable cell; viable cells, % of control: higher = more viable cells
- Call rule: 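Active when the median/MAD z-score for overall luciferase is greater than 3; a gene was taken forward for validation with new siRNAs if at least two of its three siRNAs passed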
- Calls: active = raised luciferase; inactive = no rise

target gene | siRNA no. | total luciferase, z-score | total luciferase, % of control | luciferase per cell, z-score | viable cells, % of control | activity call
PRDM8 (PR/SET domain 8) | 1 | 1.15 | 105 | 0.434 | 104 | inactive
PRDM8 (PR/SET domain 8) | 2 | 0.0537 | 83 | -0.173 | 97 | inactive
PRDM8 (PR/SET domain 8) | 3 | -1.85 | 45 | -1.67 | 78.1 | inactive
MCIDAS | 1 | 0.351 | 88.9 | 1.57 | 65.7 | inactive
MCIDAS | 2 | -0.0706 | 80.5 | -0.0917 | 92.1 | inactive
MCIDAS | 3 | 0.378 | 89.4 | 0.572 | 85.9 | inactive
USP20 (ubiquitin specific peptidase 20) | 1 | 2.18 | 125 | 1.32 | 98.8 | inactive
USP20 (ubiquitin specific peptidase 20) | 2 | 2.38 | 129 | 2.11 | 82.8 | inactive
USP20 (ubiquitin specific peptidase 20) | 3 | 0.153 | 84.9 | -0.447 | 107 | inactive
PLAC1 (placenta associated 1) | 1 | -1.19 | 58.1 | -1.34 | 92.3 | inactive
PLAC1 (placenta associated 1) | 2 | 0.744 | 96.7 | 0.895 | 85.4 | inactive
PLAC1 (placenta associated 1) | 3 | 0.0966 | 83.8 | 0.109 | 91 | inactive
RIDA (reactive intermediate imine deaminase A) | 1 | 0.242 | 86.7 | 0.236 | 91 | inactive
RIDA (reactive intermediate imine deaminase A) | 2 | -1.15 | 59 | 0.368 | 59.9 | inactive
RIDA (reactive intermediate imine deaminase A) | 3 | -0.289 | 76.1 | -1.24 | 118 | inactive
PAICS | 1 | -0.119 | 79.5 | 0.696 | 74 | inactive
PAICS | 2 | 0.679 | 95.4 | 1.2 | 77.7 | inactive
PAICS | 3 | -1.15 | 58.9 | -1.56 | 99.4 | inactive
PAICS | 4 | -0.862 | 64.7 | -0.759 | 88.3 | inactive
PAICS | 5 | -0.796 | 66.1 | -0.401 | 82 | inactive
PAICS | 6 | -0.00602 | 81.8 | -0.453 | 103 | inactive
NCAM2 (neural cell adhesion molecule 2) | 1 | -0.861 | 64.8 | -1.1 | 96.6 | inactive
NCAM2 (neural cell adhesion molecule 2) | 2 | -0.806 | 65.8 | -1.02 | 96.3 | inactive
NCAM2 (neural cell adhesion molecule 2) | 3 | 0.923 | 100 | 1.05 | 84.9 | inactive
GORASP1 (golgi reassembly stacking protein 1) | 1 | -1.92 | 43.7 | -2.05 | 83.8 | inactive
GORASP1 (golgi reassembly stacking protein 1) | 2 | -0.0188 | 81.5 | -0.319 | 99.1 | inactive
GORASP1 (golgi reassembly stacking protein 1) | 3 | -0.311 | 75.7 | -0.8 | 104 | inactive
INPP5K (inositol polyphosphate-5-phosphatase K) | 1 | 1.62 | 114 | 1.13 | 94.7 | inactive
INPP5K (inositol polyphosphate-5-phosphatase K) | 2 | -1.45 | 53 | -0.257 | 63.4 | inactive
INPP5K (inositol polyphosphate-5-phosphatase K) | 3 | -0.257 | 76.8 | 1.05 | 65.1 | inactive
APCDD1L (APC down-regulated 1 like) | 1 | -0.776 | 66.4 | -0.0213 | 74.7 | inactive
APCDD1L (APC down-regulated 1 like) | 2 | -0.815 | 65.7 | -1.22 | 101 | inactive
APCDD1L (APC down-regulated 1 like) | 3 | -0.0815 | 80.3 | -0.273 | 96.4 | inactive
PINK1 (PTEN induced kinase 1) | 1 | -1.28 | 56.5 | 1.6 | 41.4 | inactive
PINK1 (PTEN induced kinase 1) | 2 | 1.37 | 109 | 0.735 | 100 | inactive
PINK1 (PTEN induced kinase 1) | 3 | 2.22 | 126 | 1.77 | 88.3 | inactive
TNNI3K (TNNI3 interacting kinase) | 1 | 0.762 | 97 | 1.11 | 81 | inactive
TNNI3K (TNNI3 interacting kinase) | 2 | 0.298 | 87.8 | -0.68 | 117 | inactive
TNNI3K (TNNI3 interacting kinase) | 3 | 0.336 | 88.6 | -0.317 | 108 | inactive
TBX20 (T-box transcription factor 20) | 1 | -0.518 | 71.6 | -0.646 | 94.8 | inactive
TBX20 (T-box transcription factor 20) | 2 | -0.32 | 75.5 | 0.192 | 80.2 | inactive
TBX20 (T-box transcription factor 20) | 3 | 1.1 | 104 | 1.96 | 69.2 | inactive
MMP26 (matrix metallopeptidase 26) | 1 | -0.381 | 74.3 | -0.325 | 90.5 | inactive
MMP26 (matrix metallopeptidase 26) | 2 | -0.000869 | 81.9 | 0.0674 | 89.9 | inactive
MMP26 (matrix metallopeptidase 26) | 3 | 0.833 | 98.5 | 1.33 | 77.5 | inactive
PLPPR5 (phospholipid phosphatase related 5) | 1 | -0.808 | 65.8 | -1.43 | 107 | inactive
PLPPR5 (phospholipid phosphatase related 5) | 2 | 0.439 | 90.6 | -0.1 | 104 | inactive
PLPPR5 (phospholipid phosphatase related 5) | 3 | 1.04 | 103 | 0.931 | 89.8 | inactive
CFAP107 (cilia and flagella associated protein 107) | 1 | -0.0393 | 81.1 | 0.777 | 73.9 | inactive
CFAP107 (cilia and flagella associated protein 107) | 2 | 0.107 | 84 | -0.644 | 111 | inactive
CFAP107 (cilia and flagella associated protein 107) | 3 | -2.45 | 33.2 | -2.27 | 67.4 | inactive
ASB15 (ankyrin repeat and SOCS box containing 15) | 1 | -0.0455 | 81 | 0.269 | 84.3 | inactive
ASB15 (ankyrin repeat and SOCS box containing 15) | 2 | 0.0785 | 83.4 | -0.274 | 100 | inactive
ASB15 (ankyrin repeat and SOCS box containing 15) | 3 | 0.692 | 95.6 | 0.543 | 92.6 | inactive
SORL1 (sortilin related receptor 1) | 1 | -0.399 | 74 | -0.448 | 93 | inactive
SORL1 (sortilin related receptor 1) | 2 | -0.988 | 62.2 | -1.7 | 109 | inactive
SORL1 (sortilin related receptor 1) | 3 | 2.83 | 138 | 2.72 | 75.3 | inactive

In a second layout: results already given
target gene,siRNA no.,"total luciferase, z-score","total luciferase, % of control","luciferase per cell, z-score","viable cells, % of control",activity call
TNNI3K (TNNI3 interacting kinase),1,0.762,97,1.11,81,inactive
TNNI3K (TNNI3 interacting kinase),2,0.298,87.8,-0.68,117,inactive
TNNI3K (TNNI3 interacting kinase),3,0.336,88.6,-0.317,108,inactive
TBX20 (T-box transcription factor 20),1,-0.518,71.6,-0.646,94.8,inactive
TBX20 (T-box transcription factor 20),2,-0.32,75.5,0.192,80.2,inactive
TBX20 (T-box transcription factor 20),3,1.1,104,1.96,69.2,inactive
MMP26 (matrix metallopeptidase 26),1,-0.381,74.3,-0.325,90.5,inactive
MMP26 (matrix metallopeptidase 26),2,-0.000869,81.9,0.0674,89.9,inactive
